Our source for the binding values is PMC4459659.

The chains behind the UniProt entries cited, without tags or fusion partners. Residues count along the entry.
UniProt P05106, residues 27-788: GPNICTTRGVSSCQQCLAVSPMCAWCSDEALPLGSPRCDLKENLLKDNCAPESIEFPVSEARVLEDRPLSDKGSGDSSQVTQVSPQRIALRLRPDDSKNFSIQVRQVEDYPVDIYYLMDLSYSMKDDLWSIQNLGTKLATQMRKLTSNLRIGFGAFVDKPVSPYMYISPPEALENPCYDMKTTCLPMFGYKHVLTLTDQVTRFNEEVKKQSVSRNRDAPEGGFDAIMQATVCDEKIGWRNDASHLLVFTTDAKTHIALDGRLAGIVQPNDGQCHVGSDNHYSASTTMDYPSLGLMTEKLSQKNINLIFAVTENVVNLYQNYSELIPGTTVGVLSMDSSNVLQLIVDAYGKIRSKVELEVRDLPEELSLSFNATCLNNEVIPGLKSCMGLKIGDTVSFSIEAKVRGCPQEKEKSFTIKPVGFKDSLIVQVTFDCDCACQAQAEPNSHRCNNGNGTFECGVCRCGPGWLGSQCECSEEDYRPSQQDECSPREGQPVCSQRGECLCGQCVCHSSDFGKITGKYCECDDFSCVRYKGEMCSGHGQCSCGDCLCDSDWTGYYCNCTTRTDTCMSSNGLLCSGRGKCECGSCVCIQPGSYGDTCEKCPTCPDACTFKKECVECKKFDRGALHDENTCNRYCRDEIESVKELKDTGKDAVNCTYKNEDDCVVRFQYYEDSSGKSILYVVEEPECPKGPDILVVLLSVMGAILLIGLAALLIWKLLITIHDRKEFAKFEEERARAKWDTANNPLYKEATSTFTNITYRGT
UniProt P41240: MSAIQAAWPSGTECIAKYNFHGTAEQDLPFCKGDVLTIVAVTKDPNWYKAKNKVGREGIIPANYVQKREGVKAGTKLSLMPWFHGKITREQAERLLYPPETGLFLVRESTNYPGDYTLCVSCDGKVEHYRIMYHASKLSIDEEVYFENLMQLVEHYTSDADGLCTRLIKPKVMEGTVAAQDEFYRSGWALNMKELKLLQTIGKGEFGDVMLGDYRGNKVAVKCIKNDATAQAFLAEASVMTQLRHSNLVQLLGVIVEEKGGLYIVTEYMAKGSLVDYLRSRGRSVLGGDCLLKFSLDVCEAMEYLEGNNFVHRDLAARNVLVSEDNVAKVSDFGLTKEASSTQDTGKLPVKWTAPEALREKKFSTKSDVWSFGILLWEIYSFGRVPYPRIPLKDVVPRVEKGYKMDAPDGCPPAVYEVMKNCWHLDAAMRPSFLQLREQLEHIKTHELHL

This assay has as its target integrin β3 (human (endogenous in platelets)) (UniProt P05106). Kind of assay: co-IP; washed human platelets (pretreated with peptide or not), RIPA lysate, 4 °C; precipitated with anti-β3 antibody, blotted with anti-β3, anti-Src and anti-Csk antibodies.

These are yes or no findings as the source states them, for the method shown. Binding seen in cells or lysates may run through a third protein. Some binding calls cover weakened binding; strength is not graded here.

For “Csk (from UniProt P41240 1-450) (enzyme)”, the binding result is “binds”.
